“Also recorded” adds a separate entry of the source.
What was measured:
[1] = Metallic offtaste of fortified R-T-E cereal, trained panel; conditions: for Metallic Flavor: 0-10 point scale, no metallic taste to high metallic flavor, in R-T-E cereal
[2] = Brightness / vibrancy of color of fortified R-T-E cereal, trained panel; conditions: 0-10 point scale, no brightness to extremely bright; 17 trained panelists; white illumination; in R-T-E cereal

Row | Compound | Metallic Flavor [1] | Brightness Value [2] | Metallic offtaste / taste, result in words ([1]; R-T-E cereal)
1 | ferrous sulfate [reference compound] | 4.7 | 2.7 | –
2 | O=C([O-])CN(CCN(CC(=O)[O-])CC(=O)[O-])CC(=O)[O-].[Fe+3].[Na+] [Ferric EDTA, sodium ferric ethylenediaminetetraacetic acid complex] | 2.3 | 5.4 | little metallic offtaste; also recorded: did not significantly alter the taste of the cereal product; also recorded: statistically significant lower level of metallic offtaste as compared to the ferrous fumarate and ferrous sulfate samples
3 | O=C([O-])/C=C/C(=O)[O-].[Fe+2] [Ferrous Fumarate, ferrous fumarate, reference compound] | 4.1 | 4.1 | –

From US5667825A (Kellogg Company, priority 1996, dated 1997)
